This is an account of results in paper PMC11001723.

Protein sequences, listed by entry. Tags and fused reporters are not part of them.
UniProt P28741: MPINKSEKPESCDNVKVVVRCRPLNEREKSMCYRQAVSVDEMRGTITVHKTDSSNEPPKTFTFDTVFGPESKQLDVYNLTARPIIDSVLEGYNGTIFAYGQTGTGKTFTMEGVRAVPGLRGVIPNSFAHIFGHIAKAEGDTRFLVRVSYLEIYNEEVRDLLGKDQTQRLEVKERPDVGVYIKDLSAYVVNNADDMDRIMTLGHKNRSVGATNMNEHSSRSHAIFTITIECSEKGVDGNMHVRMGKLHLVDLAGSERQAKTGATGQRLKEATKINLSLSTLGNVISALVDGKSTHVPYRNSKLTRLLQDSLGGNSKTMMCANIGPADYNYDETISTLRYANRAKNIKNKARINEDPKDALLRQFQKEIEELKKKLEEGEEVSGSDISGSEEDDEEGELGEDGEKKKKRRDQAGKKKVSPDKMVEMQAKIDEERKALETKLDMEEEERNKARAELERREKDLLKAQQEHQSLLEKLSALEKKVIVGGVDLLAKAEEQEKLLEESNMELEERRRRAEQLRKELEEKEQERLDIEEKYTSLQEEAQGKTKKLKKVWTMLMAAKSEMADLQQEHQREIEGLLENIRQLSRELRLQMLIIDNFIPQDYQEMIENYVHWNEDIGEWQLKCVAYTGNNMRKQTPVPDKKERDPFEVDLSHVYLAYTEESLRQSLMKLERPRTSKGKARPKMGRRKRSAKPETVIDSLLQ

The assay deals with Kinesin family member 3A (mouse (endogenous in ovary)) (UniProt P28741). The assay is described as follows: affinity purification with mass spectrometry; rabbit anti-KIF3A antibody on Dynabeads Protein G, incubated with lysate of 6 mouse ovaries for 6 h at 4 °C; eluate analysed by LC-MS (Mascot search).

No constants are given. Whether binding was seen depends on the method and setting. In cells and extracts the contact can be indirect. These calls come from enrichment with a bait or labelling near it, and not all partners need be listed.

B1: CDC37 (protein, UniProt Q61081 1-379)
chain: MVDYSVWDHIEVSDDEDETHPNIDTASLFRWRHQARVERMEQFQKEKEELDRGCRECKRKVAECQRKLKELEVAESDGQVELERLRAEAQQLRKEERSWEQKLEDMRKKEKNMPWNVDTLSKDGFSKSMVNTKPEKAEEDSEEAREQKHKTFVEKYEKQIKHFGMLHRWDDSQKYLSDNVHLVCEETANYLVIWCIDLEVEEKCALMEQVAHQTMVMQFILELAKSLKVDPRACFRQFFTKIKTADHQYMEGFKYELEAFKERVRGRAKLRIEKAMKEYEEEERKKRLGPGGLDPVEVYESLPEELQKCFDVKDVQMLQDAISKMDPTDAKYHMQRCIDSGLWVPNSKSGEAKEGEEAGPGDPLLEAVPKAGNEKDVSA
With B1, the binding entry is on record as “binds”.

B2: KIFC1 (protein, UniProt Q9QWT9 1-674)
chain: MDVQAQRPPLLEVKRNVELKAALVKSSSRVPLSASRLKRGPDQMEDALEPAKKRTRVMGAVTKVDTSRPRGPLLSTVSQTQGHTAAQKGPKKTGPRGCSAIGTVLRSQKPVPAAPAQKPGTSTAPVVVGKRAGKRPAWDLKGQLCDLNEELKRYREKTQTLELENRGLREQLREVQEQATTLGTERNTLEGELASVRSRAEQDQQRLETLSARVLELEECLGTRERLLQELQGERLQLQEERSTLSTQLEEQERRFQATEAALSSSQEEVVCLRQKTEAQVTLLAEQGDRLYGLEMERRRLHNQLQELKGNIRVFCRVRPVLEGESTPSPGFLVFPPGPAGPSDPPTGLSLSRSDDRRSTLTGAPAPTVRHDFSFDRVFPPGSKQEEVFEEIAMLVQSALDGYPVCIFAYGQTGSGKTFTMEGGPRGDPQLEGLIPRAMRHLFSVAQEMSGQGWTYSFVASYVEIYNETVRDLLATGPRKGQGGECEIRRASPGSEELTVTNARYVPVSCEKEVEALLHLAHQNRAVAHTAQNKRSSRSHSVFQLQISGEHAARGLQCGAPLNLVDLAGSERLDPGLHLGPGERDRLRETQAINSSLSTLGLVIMALSNKESHVPYRNSKLTYLLQNSLGGSAKMLMFVNISPLEENVSESLNSLRFASKVNQCVIGTAQANKK
Turning to B2, the binding result is reported as “binds”.
